In article PMC12483374 one finds binding data, which are given here for one molecule.

By UniProt entry, the sequences of proteins in these tests, tags left out. Where a name states a change or a piece, a line headed by the entry shows the natural chain unless it says otherwise.
UniProt P51149: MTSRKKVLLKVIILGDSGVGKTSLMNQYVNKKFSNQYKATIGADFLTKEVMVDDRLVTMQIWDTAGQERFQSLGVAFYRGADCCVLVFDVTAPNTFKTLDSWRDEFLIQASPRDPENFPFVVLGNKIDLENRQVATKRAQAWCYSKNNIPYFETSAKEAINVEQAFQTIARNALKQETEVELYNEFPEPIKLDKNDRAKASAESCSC

Results are given in words; binding and its absence hold for the method and conditions named. Binding seen in cells or lysates may run through a third protein. Some binding calls cover weakened binding; strength is not graded here.

One assay addresses GFP-RAB7A (UniProt P51149). The assay can be described thus: co-IP; extracts of transfected HEK293T cells (10 mM Tris/Cl pH 7.4, 150 mM NaCl, 0.5 mM EDTA, 0.5% Nonidet P-40 Substitute) incubated with GFP-TRAP Magnetic Agarose for 1 h at 4°C; beads immunoblotted for GFP and endogenous SPG21; GFP alone as control.
Another assay deals with GFP-RAB7A-T22N (UniProt P51149). The description is as above.

B1: SPG21 (endogenous) (protein, UniProt Q9NZD8 1-308)
chain: MGEIKVSPDYNWFRGTVPLKKIIVDDDDSKIWSLYDAGPRSIRCPLIFLPPVSGTADVFFRQILALTGWGYRVIALQYPVYWDHLEFCDGFRKLLDHLQLDKVHLFGASLGGFLAQKFAEYTHKSPRVHSLILCNSFSDTSIFNQTWTANSFWLMPAFMLKKIVLGNFSSGPVDPMMADAIDFMVDRLESLGQSELASRLTLNCQNSYVEPHKIRDIPVTIMDVFDQSALSTEAKEEMYKLYPNARRAHLKTGGNFPYLCRSAEVNLYVQIHLLQFHGTKYAAIDPSMVSAEELEVQKGSLGISQEEQ
In the case of B1, the binding result with GFP-RAB7A and with GFP-RAB7A-T22N was “binds” throughout.
